PubChem BioAssay AID602196 | INSERM, 2012

Purpose: 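Genes whose knock-down alters cisplatin killing of lung cancer cells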
System: human A549 lung cancer cells
Reagent: siRNA pair against human genes
Duration: 48 h transfection before cisplatin; time from cisplatin to read-out not stated
Challenge: cisplatin at a dose killing half of control-siRNA cells; exact dose and duration not given
Detection: 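Shift in cisplatin death relative to control siRNA, from -50 (all cells die) to +50 (no cells die); siRNAs harmful on their own scored 0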
Direction: two-siRNA summed score (-2 to +2): higher = both siRNAs protect from cisplatin killing; -2 means both sensitise; mean protection from cisplatin (shift in death) and protection from cisplatin (shift in death), siRNA C and protection from cisplatin (shift in death), siRNA D: higher = protection from cisplatin killing
Rule for the call: 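siRNAs harmful alone (LDH or WST-1) get 0; others get +1 for less and -1 for more cisplatin killing; genes are active when the two siRNAs give the same sign, summing to ±2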
Meaning of the calls: active = both siRNAs shift cisplatin killing the same way; inactive = no consistent shift, or siRNA harmful alone
Shown is an unselected part of about 23,000 deposited reagents. 455 of them (2%) were called active. 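Active includes both protection and sensitisation; some change values fall well beyond the stated -50 to +50 range.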 Not stated in the record: the amount of reagent.

target,two-siRNA summed score (-2 to +2),mean protection from cisplatin (shift in death) (%),"protection from cisplatin (shift in death), siRNA C (%)","protection from cisplatin (shift in death), siRNA D (%)",Outcome
UBE2D3 (ubiquitin conjugating enzyme E2 D3),1,16.3,12.8,19.7,inactive
UTS2 (urotensin 2),1,15.1,19,11.3,inactive
MOCS3 (molybdenum cofactor synthesis 3),0,-4.3,2.3,-11,inactive
QRICH2 (glutamine rich 2),-1,2.5,-11.1,16,inactive
DRAM2 (DNA damage regulated autophagy modulator 2),0,-1.4,0.7,-3.4,inactive
SBK1 (SH3 domain binding kinase 1),0,-2.7,2.1,-7.4,inactive
RNF128 (ring finger protein 128),0,7.8,0.5,15.2,inactive
LOC442722,0,5.9,4.7,7.1,inactive
TMED10 (transmembrane p24 trafficking protein 10),0,5.3,11.1,-0.6,inactive
PAQR5 (progestin and adipoQ receptor family member 5),0,34.3,57.8,10.9,inactive
LOC388714,0,13.6,8.7,18.6,inactive
LPA (lipoprotein(a)),0,-10.5,-14.1,-6.8,inactive
IREB2 (iron responsive element binding protein 2),0,9.3,11.8,6.8,inactive
SLC7A13,0,13.8,37.1,-9.5,inactive
CCR6 (C-C motif chemokine receptor 6),-1,-12.9,-1.8,-24.1,inactive
TMSB4Y (thymosin beta 4 Y-linked),1,10.9,17.5,4.3,inactive
LOC389386,0,-1.6,-7,3.8,inactive
SPACA3 (sperm acrosome associated 3),1,9.6,15.4,3.8,inactive
CLEC6A (C-type lectin domain containing 6A),0,6.2,16.2,-3.7,inactive
MOSMO (modulator of smoothened),1,13.2,26.9,-0.6,inactive
C1orf105 (chromosome 1 open reading frame 105),1,12.9,16.1,9.7,inactive
VIRMA (vir like m6A methyltransferase associated),1,16.3,15.2,17.3,inactive
PSMC3IP (PSMC3 interacting protein),-1,-26.3,-34.1,-18.6,inactive
ANXA2R-AS1 (ANXA2R antisense RNA 1),-1,-16.8,-25.4,-8.1,inactive
LOC440037,-1,-3.9,1.6,-9.4,inactive
DPYS (dihydropyrimidinase),0,-1.1,4.7,-6.9,inactive
AOAH (acyloxyacyl hydrolase),1,24.1,22.4,25.7,inactive
MPP4 (MAGUK p55 scaffold protein 4),0,5.4,6.5,4.3,inactive
SSH1 (slingshot protein phosphatase 1),0,2.8,0.1,5.5,inactive
SLC35D4,0,-1.4,6.8,-9.6,inactive
MOK (MOK protein kinase),0,-4.2,-9.1,0.8,inactive
PPP3CA (protein phosphatase 3 catalytic subunit alpha),0,15.6,3.7,27.4,inactive
CCDC141 (coiled-coil domain containing 141),-1,3.5,22.5,-15.5,inactive
"VN1R10P (vomeronasal 1 receptor 10, pseudogene)",2,28,24.7,31.3,active
KCNK13 (potassium two pore domain channel subfamily K member 13),0,0.7,7,-5.7,inactive
"RNPC3 (RNA binding region (RNP1, RRM) containing 3)",0,1.2,4.1,-1.8,inactive
MRGPRX1 (MAS related GPR family member X1),1,4.3,-12.9,21.5,inactive
OGFOD3,1,14.9,21.5,8.3,inactive
LOC131572,-1,-3.7,11.8,-19.2,inactive
LOC340089 (POM121 membrane glycoprotein (rat) pseudogene),0,-5.7,-9.7,-1.8,inactive
GALNT11 (polypeptide N-acetylgalactosaminyltransferase 11),0,7,5.3,8.7,inactive
RIC1 (RIC1 partner of RAB6A GEF complex),0,-7.8,-8.8,-6.7,inactive
PIGK (phosphatidylinositol glycan anchor biosynthesis class K),0,1.4,-3.1,5.8,inactive
ADAMTS10 (ADAM metallopeptidase with thrombospondin type 1 motif 10),0,0.4,1.2,-0.3,inactive
SRSF4 (serine and arginine rich splicing factor 4),0,4.5,7.8,1.3,inactive
LOC341604,0,5.3,0.6,10.1,inactive
TBCE (tubulin folding cofactor E),0,11.3,0.5,22.1,inactive
NGB (neuroglobin),0,-3.8,-7.7,0,inactive
DDX51 (DEAD-box helicase 51),0,4.1,-5.3,13.5,inactive
WNT2B (Wnt family member 2B),0,0.8,-5.4,7.1,inactive
GSTA4 (glutathione S-transferase alpha 4),0,1.8,-2.7,6.3,inactive
XG (Xg glycoprotein (Xg blood group)),0,5.3,4.3,6.2,inactive
NR2C2 (nuclear receptor subfamily 2 group C member 2),0,15.2,21.1,9.4,inactive
PEA15 (proliferation and apoptosis adaptor protein 15),0,-5.3,-0.1,-10.5,inactive
TM2D3 (TM2 domain containing 3),1,19.1,20.9,17.3,inactive
ZXDC (ZXD family zinc finger C),-1,2.2,13.8,-9.5,inactive
NEUROG2 (neurogenin 2),0,6.2,12.5,-0.1,inactive

Copied from the list.
SLC7A13, Outcome: inactive
QRICH2 (glutamine rich 2), Outcome → inactive
Value of ADAMTS10 (ADAM metallopeptidase with thrombospondin type 1 motif 10) in “two-siRNA summed score (-2 to +2)”: 0
Under “protection from cisplatin (shift in death), siRNA C (%)”, CCDC141 (coiled-coil domain containing 141) shows 22.5
Entry for KCNK13 (potassium two pore domain channel subfamily K member 13) under “Outcome”: inactive
Under “two-siRNA summed score (-2 to +2)”, IREB2 (iron responsive element binding protein 2) has 0
